The record followed here is paper PMC7819943, “Rice protein-binding microarrays: a tool to detect cis-acting elements near promoter regions in rice”.

The chains behind the UniProt entries cited, without tags or fusion partners.
UniProt Q0JBA9, entry or part of it: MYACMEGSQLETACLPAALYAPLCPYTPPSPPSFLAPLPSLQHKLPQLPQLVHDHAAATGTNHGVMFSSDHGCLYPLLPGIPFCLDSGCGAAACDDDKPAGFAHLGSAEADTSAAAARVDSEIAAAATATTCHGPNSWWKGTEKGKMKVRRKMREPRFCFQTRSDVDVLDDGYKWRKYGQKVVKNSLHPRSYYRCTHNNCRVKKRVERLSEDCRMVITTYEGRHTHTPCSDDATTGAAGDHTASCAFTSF

Some of the results follow.

This test addresses OsWRKY34 (Oryza sativa, UniProt Q0JBA9 1-250). Kind of test: protein-binding microarray (RPBM); PBS, 2% BSA, 51.3 ng/ul salmon testes DNA, 50 uM zinc acetate, 200 nM TF, 25 C, 1 h; high values mean tight binding. To be noted: protein: recombinant; tags: N-terminal polyhistidine and DsRed monomer fusion (pET32a); label: CyDye5-dUTP incorporated in the synthesized complementary strand; 3' TTTTT single-stranded linker to array surface; dsDNA, one strand shown. An outline of the steps:
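The binding signal is fluorescence intensity per array feature (arbitrary units). Readings came from an Axon 4000B scanner after a washed, 2% BSA-blocked, double-stranded custom Agilent array had been incubated for 1 h at 25 °C with 200 nM protein and 50 µM zinc acetate. The protein was a Ni–NTA-purified transcription factor fused N-terminally to polyhistidine and DsRed, expressed in E. coli BL21-CodonPlus.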
As to “TTAGGTCGGGTTTTTCCCGTTTCTCGTTTCTATGGCGATGCGGAGTCACCTAGTGCAG”, the binding signal is 8750 fluorescence intensity (a.u.). In the case of “CCTTAAAACTGTCAGATTTTTTGTTTTTTTTGTTACAGCTCGGAGTCACCTAGTGCAG” it was 9700 fluorescence intensity (a.u.). Regarding “AACACCTCGCCGACAACCTTTGCTCCGGCGACCGGAGGTCCGGAGTCACCTAGTGCAG”, the binding signal was 9170 fluorescence intensity (a.u.). Take “GCCGCCGCGCGCGTCTATCCCCTCGCCGCCGCCGCCGTCTCGGAGTCACCTAGTGCAG”: the binding signal is 8080 fluorescence intensity (a.u.). In the case of “CACCAGCTTTTCCTTCTTCTCTCTCTTCTCCGGCGTCCATCGGAGTCACCTAGTGCAG”, the binding signal was 8560 fluorescence intensity (a.u.). In the case of “TTCAAATGCTTCCTGTTTGTCTACTTTTCTACTTTATTTACGGAGTCACCTAGTGCAG” it was 8740 fluorescence intensity (a.u.); in that of “CTCCCTTGTCTTCCTCCTCTTCGAACCGCCTCTCATCGCCCGGAGTCACCTAGTGCAG”, 8380 fluorescence intensity (a.u.); in that of “GGTCGTTTGGTTACCTGCACAGCTGTCGGGCCCGACTCCACGGAGTCACCTAGTGCAG”, 9620 fluorescence intensity (a.u.). In the case of “GGGGTGGCGGTGGCGGTGGTGGTGGTGGTGGTGGTGGAGTCGGAGTCACCTAGTGCAG” it was 41600 fluorescence intensity (a.u.); in that of “TATCCACCGCTCGCGACCTCCGCAATTCCACCGTATTCTCCGGAGTCACCTAGTGCAG”, 10300 fluorescence intensity (a.u.); in that of “TTTGTACCAGGTGGCAGTTAAAGTTGAAACCCTGTCTGGACGGAGTCACCTAGTGCAG”, 8700 fluorescence intensity (a.u.).

“GGTTCATCTGCCGAATTGTTTCGGTGGGTTTGGTGGGAAACGGAGTCACCTAGTGCAG”: the binding signal was 12900 fluorescence intensity (a.u.). In the case of “ATGCATCCGTGGCATTGCATTGCATACTTATCCTACAAATCGGAGTCACCTAGTGCAG” it was 8260 fluorescence intensity (a.u.). As for “ACTTACCTAATTCAAGTCACTGTCTTGCTCATCGAGATTACGGAGTCACCTAGTGCAG”, the binding signal was 8260 fluorescence intensity (a.u.).

With “GCTGCTGCTGCCTCGTTTGACCTACCGTTTCTTTAATCTGCGGAGTCACCTAGTGCAG”, the binding signal was 9590 fluorescence intensity (a.u.). On to “CCGGCAGCTTCCACTACCTGCAGACCCACCACTTCGCCTACGGAGTCACCTAGTGCAG”, for which the binding signal was 13500 fluorescence intensity (a.u.). Consider “TCTCTTTGGTTGAGGTCTGGGCCTTTGTGCTGCTCTGTAACGGAGTCACCTAGTGCAG”, for which the binding signal is 11000 fluorescence intensity (a.u.).

On to “CTAGGTGTGCTTTTGTTTTGTTTTTTTGCGCGCCACTTTTCGGAGTCACCTAGTGCAG”, for which the binding signal is 16300 fluorescence intensity (a.u.). In the case of “CATGAGACGCGTGTTGCCATTGCTATGTCCGGTTCCAGCCCGGAGTCACCTAGTGCAG” it was 8870 fluorescence intensity (a.u.); in that of “CCATTGGAACGTTCTTGCCACGCGTTTTTTTATTTTTTTTCGGAGTCACCTAGTGCAG”, 15300 fluorescence intensity (a.u.); in that of “TCCATCCATGCATTCTCCAACTGGACAGTGTAATATTTTCCGGAGTCACCTAGTGCAG”, 10100 fluorescence intensity (a.u.).

“ACGAATTTCTCCCTTACCACACGACAATTTCCCCGTCTCTCGGAGTCACCTAGTGCAG”: the binding signal was 11100 fluorescence intensity (a.u.). In the case of “AGTTACCGTTCTAGTCAGGGGCGGATCCAGCGTGGGGCGGCGGAGTCACCTAGTGCAG” it was 12600 fluorescence intensity (a.u.); in that of “TATTTCCGACACAGGGCGGGGATTTTTTTTTTGGAAACAACGGAGTCACCTAGTGCAG”, 14800 fluorescence intensity (a.u.); in that of “CCAATTTTGACCGATTCCCTGTGTATGTTCCCTCCCATATCGGAGTCACCTAGTGCAG”, 9200 fluorescence intensity (a.u.). In the case of “TTCTGTTCATTAGTAGTACTCTGCTTGGCGGCTTCCTTTTCGGAGTCACCTAGTGCAG” it was 8850 fluorescence intensity (a.u.). Consider “CTTCCTCGTTTTTGCAAAATCCCTCTCACCCAGCAATCCGCGGAGTCACCTAGTGCAG”, for which the binding signal is 8360 fluorescence intensity (a.u.). Regarding “ATTTTCTTTACCAGCTGTACAGTTTTATATTCATTTTTTTCGGAGTCACCTAGTGCAG”, the binding signal is 12800 fluorescence intensity (a.u.). Turning to “GGTCGGCGGCGGCGGGTTGGTGGCGGACGCGGCGGATCTGCGGAGTCACCTAGTGCAG”, the binding signal was 8020 fluorescence intensity (a.u.). In the case of “GGTCGCTTTACCTCCCCTGCCTGAACACTCTATGCTGCAGCGGAGTCACCTAGTGCAG” it was 8370 fluorescence intensity (a.u.); in that of “GATAGAGTTAGGGCATTTGAGATTGTTGGAAGTGGTGTGACGGAGTCACCTAGTGCAG”, 8030 fluorescence intensity (a.u.). In the case of “ACATATATGATTCCAGTCACATTTAATTTTCCTTTTACAGCGGAGTCACCTAGTGCAG” it was 8300 fluorescence intensity (a.u.); in that of “AACGGTCATCGGTCATCGCACGTTGTCTCGTTTATGAACTCGGAGTCACCTAGTGCAG”, 9230 fluorescence intensity (a.u.).

As to “TGTTTTTTTCCTCTTTCAAGGCGATTTGTCATGTTTCTGTCGGAGTCACCTAGTGCAG”, the binding signal is 14800 fluorescence intensity (a.u.). Take “ACTATTGTCATCTTACATGGACTCACCTTATTATCTACTTCGGAGTCACCTAGTGCAG”: the binding signal is 9150 fluorescence intensity (a.u.). In the case of “TTTGTCCAGTCCTTTCACACAATTCCTTCGTGTGATCTGCCGGAGTCACCTAGTGCAG” it was 8790 fluorescence intensity (a.u.).

For “GCTAGCTCTCTCAAACCATCTCTCTCTTTCTTTCTGTGACCGGAGTCACCTAGTGCAG”, the binding signal is 8340 fluorescence intensity (a.u.). Consider “CCGTCAGCGTTGTCTTCCCCATGCTTCCCTAGCATCGGTTCGGAGTCACCTAGTGCAG”, for which the binding signal was 9080 fluorescence intensity (a.u.). In the case of “CGGTCGTTGATCTTATTCATCATAATCACACCAGTACAATCGGAGTCACCTAGTGCAG” it was 11100 fluorescence intensity (a.u.). In the case of “ACCAACTCTTCTCGCCCTAATCCATTTCTGAACTAAATTACGGAGTCACCTAGTGCAG” it was 8530 fluorescence intensity (a.u.). In the case of “TAGCAGTGCCACCTTTTTCTGTCCGCTGTTGAGCTTGTGCCGGAGTCACCTAGTGCAG” it was 9400 fluorescence intensity (a.u.); in that of “GTGCTTTACTGCCTGGATTACTGCATCTACTTTTTTGTTACGGAGTCACCTAGTGCAG”, 10900 fluorescence intensity (a.u.).
